Experimental data from PMC6868236.
Results are given in words; binding and its absence hold for the method and conditions named. Binding seen in cells or lysates may run through a third protein. Some entries that bind do so weakly or less than the wild type. Sequences can lack the tags named with a protein.

Chains of the proteins cited; added tags and fusions are not shown.
UniProt P35177: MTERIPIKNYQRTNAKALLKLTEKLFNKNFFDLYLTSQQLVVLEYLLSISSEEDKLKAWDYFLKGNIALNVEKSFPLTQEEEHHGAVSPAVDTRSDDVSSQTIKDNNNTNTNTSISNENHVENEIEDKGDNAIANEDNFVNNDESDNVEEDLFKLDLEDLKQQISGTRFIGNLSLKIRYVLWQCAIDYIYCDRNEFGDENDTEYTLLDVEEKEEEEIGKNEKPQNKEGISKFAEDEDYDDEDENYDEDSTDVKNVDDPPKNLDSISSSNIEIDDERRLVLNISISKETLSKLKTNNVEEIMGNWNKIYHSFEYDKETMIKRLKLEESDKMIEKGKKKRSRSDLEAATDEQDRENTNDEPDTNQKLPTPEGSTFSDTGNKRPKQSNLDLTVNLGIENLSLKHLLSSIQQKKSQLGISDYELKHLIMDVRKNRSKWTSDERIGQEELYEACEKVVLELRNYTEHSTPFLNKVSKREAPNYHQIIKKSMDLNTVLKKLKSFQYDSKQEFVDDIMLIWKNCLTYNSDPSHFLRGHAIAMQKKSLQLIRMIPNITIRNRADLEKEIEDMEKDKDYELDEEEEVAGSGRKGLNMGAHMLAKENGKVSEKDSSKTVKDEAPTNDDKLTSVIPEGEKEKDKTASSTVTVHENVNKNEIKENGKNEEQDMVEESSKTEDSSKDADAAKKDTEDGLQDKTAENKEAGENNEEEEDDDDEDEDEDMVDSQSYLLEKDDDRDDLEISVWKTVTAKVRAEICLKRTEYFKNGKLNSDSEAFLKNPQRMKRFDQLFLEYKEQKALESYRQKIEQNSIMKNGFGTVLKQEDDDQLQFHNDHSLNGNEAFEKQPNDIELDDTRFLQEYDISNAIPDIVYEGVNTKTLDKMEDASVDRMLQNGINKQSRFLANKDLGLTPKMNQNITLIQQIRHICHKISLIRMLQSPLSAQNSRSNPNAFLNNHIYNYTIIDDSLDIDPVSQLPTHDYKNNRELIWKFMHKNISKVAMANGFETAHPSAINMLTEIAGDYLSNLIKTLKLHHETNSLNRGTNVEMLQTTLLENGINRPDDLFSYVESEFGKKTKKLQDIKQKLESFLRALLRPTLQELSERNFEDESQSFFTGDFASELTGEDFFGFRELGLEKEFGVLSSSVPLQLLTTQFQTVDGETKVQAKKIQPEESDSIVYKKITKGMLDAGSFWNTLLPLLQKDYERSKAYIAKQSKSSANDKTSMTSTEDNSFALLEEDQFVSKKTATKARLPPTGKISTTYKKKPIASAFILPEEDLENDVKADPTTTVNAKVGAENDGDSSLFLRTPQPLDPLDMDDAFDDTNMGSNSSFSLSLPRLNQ
UniProt Q9HFE8: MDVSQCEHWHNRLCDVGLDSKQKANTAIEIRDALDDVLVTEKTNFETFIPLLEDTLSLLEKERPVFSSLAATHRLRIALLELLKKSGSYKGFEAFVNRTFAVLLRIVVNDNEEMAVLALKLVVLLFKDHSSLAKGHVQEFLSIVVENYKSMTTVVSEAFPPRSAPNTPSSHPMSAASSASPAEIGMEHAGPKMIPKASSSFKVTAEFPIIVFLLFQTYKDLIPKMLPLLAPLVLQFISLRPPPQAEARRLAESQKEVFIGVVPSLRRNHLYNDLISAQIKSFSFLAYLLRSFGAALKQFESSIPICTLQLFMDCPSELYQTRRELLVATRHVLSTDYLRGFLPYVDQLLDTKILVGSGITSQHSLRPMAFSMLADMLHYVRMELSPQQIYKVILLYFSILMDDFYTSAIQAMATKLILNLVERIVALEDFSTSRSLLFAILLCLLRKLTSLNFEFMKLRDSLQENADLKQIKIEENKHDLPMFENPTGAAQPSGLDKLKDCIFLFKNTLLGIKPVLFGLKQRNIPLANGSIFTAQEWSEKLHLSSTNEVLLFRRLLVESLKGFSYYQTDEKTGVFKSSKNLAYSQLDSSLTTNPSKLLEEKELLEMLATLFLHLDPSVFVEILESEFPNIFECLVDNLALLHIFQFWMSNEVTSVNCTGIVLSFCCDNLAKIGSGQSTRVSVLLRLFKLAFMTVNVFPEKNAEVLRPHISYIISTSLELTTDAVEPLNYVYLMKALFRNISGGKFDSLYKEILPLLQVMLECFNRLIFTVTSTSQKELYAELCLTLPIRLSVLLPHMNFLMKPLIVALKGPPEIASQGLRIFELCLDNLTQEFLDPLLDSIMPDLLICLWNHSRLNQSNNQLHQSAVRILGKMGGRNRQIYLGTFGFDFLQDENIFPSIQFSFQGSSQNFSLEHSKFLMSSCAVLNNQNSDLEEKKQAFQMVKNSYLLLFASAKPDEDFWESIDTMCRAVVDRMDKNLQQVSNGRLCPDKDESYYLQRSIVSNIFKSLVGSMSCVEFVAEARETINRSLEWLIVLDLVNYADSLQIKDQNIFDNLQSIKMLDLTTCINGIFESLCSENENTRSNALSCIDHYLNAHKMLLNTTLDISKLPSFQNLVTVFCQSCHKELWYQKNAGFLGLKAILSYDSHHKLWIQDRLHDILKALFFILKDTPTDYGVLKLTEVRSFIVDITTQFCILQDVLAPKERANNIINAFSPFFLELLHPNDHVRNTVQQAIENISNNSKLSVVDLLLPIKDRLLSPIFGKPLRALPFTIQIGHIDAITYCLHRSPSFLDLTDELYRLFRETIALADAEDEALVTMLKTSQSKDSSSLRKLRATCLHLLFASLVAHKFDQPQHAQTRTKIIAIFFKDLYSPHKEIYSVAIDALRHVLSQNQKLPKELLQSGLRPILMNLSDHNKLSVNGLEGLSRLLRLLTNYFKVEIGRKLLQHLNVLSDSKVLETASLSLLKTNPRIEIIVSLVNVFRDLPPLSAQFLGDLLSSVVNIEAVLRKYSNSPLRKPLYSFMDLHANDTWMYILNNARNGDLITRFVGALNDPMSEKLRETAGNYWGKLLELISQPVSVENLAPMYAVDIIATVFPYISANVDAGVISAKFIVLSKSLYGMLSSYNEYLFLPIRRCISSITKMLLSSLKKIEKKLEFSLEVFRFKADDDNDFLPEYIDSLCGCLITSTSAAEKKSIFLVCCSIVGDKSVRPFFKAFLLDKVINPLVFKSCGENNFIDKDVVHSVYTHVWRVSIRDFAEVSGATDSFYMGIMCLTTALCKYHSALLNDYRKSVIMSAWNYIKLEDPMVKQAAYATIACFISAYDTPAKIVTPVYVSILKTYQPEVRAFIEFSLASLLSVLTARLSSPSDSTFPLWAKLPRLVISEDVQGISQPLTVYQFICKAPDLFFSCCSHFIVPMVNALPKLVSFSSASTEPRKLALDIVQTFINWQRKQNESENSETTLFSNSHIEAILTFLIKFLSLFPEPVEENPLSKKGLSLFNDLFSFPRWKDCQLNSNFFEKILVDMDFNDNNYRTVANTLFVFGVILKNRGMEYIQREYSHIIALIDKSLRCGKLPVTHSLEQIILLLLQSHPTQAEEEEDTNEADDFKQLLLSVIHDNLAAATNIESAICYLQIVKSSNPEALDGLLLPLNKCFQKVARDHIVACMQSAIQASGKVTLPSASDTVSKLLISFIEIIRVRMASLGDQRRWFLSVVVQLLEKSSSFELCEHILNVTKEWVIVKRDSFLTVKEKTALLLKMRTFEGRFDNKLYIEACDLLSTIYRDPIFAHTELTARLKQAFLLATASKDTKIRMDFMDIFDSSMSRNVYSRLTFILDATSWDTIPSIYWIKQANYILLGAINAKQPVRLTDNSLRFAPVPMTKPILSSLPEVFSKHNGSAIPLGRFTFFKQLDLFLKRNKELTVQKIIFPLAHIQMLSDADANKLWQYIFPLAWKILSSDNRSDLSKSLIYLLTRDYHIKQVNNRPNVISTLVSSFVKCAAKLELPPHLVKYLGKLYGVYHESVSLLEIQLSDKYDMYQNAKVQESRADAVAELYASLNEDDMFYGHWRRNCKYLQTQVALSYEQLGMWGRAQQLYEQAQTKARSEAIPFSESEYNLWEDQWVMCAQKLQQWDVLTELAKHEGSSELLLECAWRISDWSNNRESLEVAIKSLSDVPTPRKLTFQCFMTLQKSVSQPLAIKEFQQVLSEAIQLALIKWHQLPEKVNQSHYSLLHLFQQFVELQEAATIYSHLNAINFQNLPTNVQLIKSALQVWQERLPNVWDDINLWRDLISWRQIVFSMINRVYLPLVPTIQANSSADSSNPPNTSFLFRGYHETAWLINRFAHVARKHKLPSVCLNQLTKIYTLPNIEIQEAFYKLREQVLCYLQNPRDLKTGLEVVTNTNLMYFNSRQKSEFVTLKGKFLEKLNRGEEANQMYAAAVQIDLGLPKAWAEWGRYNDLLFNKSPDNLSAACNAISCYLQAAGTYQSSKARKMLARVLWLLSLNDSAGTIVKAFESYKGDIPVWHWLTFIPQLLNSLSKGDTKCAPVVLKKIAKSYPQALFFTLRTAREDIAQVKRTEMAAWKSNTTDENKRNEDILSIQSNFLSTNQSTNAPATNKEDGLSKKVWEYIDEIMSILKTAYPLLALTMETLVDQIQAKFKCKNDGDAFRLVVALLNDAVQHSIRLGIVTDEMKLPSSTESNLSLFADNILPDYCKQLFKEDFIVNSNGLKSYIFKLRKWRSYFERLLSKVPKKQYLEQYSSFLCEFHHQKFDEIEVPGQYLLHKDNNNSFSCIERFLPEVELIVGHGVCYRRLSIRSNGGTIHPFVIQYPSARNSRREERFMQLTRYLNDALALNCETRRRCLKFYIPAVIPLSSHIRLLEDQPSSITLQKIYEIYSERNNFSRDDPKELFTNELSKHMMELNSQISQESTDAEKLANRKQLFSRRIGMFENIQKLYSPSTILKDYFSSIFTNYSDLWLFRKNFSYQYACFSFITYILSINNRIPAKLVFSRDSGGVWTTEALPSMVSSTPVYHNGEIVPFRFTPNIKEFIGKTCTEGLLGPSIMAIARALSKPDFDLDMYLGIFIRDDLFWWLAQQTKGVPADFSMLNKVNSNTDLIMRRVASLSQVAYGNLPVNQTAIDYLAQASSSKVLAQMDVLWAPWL

T1: GST fused to S. pombe (Sp) Spt20 HIT region (residues 282–324) (S. pombe) (UniProt O14174)
T1 sequence: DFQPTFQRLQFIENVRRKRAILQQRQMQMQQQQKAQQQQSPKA

T2: GST fused to S. cerevisiae (Sc) Spt20 HIT region (residues 468–537) (S. cerevisiae) (UniProt P50875)
T2 sequence: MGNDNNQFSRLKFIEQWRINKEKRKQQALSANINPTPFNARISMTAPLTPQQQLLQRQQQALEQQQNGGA


Key:
[1] = molecular target: T1, GST fused to S. pombe (Sp) Spt20 HIT region (residues 282–324) (S. pombe); assay: pull-down; GST or GST-HIT on Glutathione Sepharose 4B beads incubated overnight at 4 °C with 5–10 mg of S. pombe protein extracts in WEB lysis buffer (40 mM HEPES-NaOH pH 7.4, 350 mM NaCl, 0.1% NP40, 10% glycerol); anti-FLAG western blot; only the target purified
[2] = molecular target: T2, GST fused to S. cerevisiae (Sc) Spt20 HIT region (residues 468–537) (S. cerevisiae); assay: as above
[3] = molecular target: HA-Spt7-TAP (S. cerevisiae) (S. cerevisiae) (UniProt P35177); assay: co-IP; S. cerevisiae SAGA eluates purified by HA-Spt7-TAP, anti-V5 western blot of Spt20 truncation mutants

Molecule	binding [1]	binding [2]	binding [3]
FLAG-Tra1 (S. pombe, wild type) (from UniProt Q9HFE8 1-3661)	binds	binds	–
Spt20-380 (S. cerevisiae Spt20 truncation, V5-tagged) (domain or fragment, UniProt P50875 1-380) MSANSPTGNDPHVFGIPVNATPSNMGSPGSPVNVPPPMNPAVANVNHPVMRTNSNSNANEGTRTLTREQIQQLQQRQRLLLQQRLLEQQRKQQALQNYEAQFYQMLMTLNKRPKRLYNFVEDADSILKKYEQYLHSFEFHIYENNYKICAPANSRLQQQQKQPELTSDGLILTKNNETLKEFLEYVARGRIPDAIMEVLRDCNIQFYEGNLILQVYDHTNTVDVTPKENKPNLNSSSSPSNNNSTQDNSKIQQPSEPNSGVANTGANTANKKASFKRPRVYRTLLKPNDLTTYYDMMSYADNARFSDSIYQQFESEILTLTKRNLSLSVPLNPYEHRDMLEETAFSEPHWDSEKKSFIHEHRAESTREGTKGVVGHIEER	–	–	binds
Spt20-408 (S. cerevisiae Spt20 truncation, V5-tagged) (domain or fragment, UniProt P50875 1-408) MSANSPTGNDPHVFGIPVNATPSNMGSPGSPVNVPPPMNPAVANVNHPVMRTNSNSNANEGTRTLTREQIQQLQQRQRLLLQQRLLEQQRKQQALQNYEAQFYQMLMTLNKRPKRLYNFVEDADSILKKYEQYLHSFEFHIYENNYKICAPANSRLQQQQKQPELTSDGLILTKNNETLKEFLEYVARGRIPDAIMEVLRDCNIQFYEGNLILQVYDHTNTVDVTPKENKPNLNSSSSPSNNNSTQDNSKIQQPSEPNSGVANTGANTANKKASFKRPRVYRTLLKPNDLTTYYDMMSYADNARFSDSIYQQFESEILTLTKRNLSLSVPLNPYEHRDMLEETAFSEPHWDSEKKSFIHEHRAESTREGTKGVVGHIEERDEFPQHSSNYEQLMLIMNERTTTITNST	–	–	binds
Spt20-474 (S. cerevisiae Spt20 truncation, V5-tagged) (domain or fragment, UniProt P50875 1-474) MSANSPTGNDPHVFGIPVNATPSNMGSPGSPVNVPPPMNPAVANVNHPVMRTNSNSNANEGTRTLTREQIQQLQQRQRLLLQQRLLEQQRKQQALQNYEAQFYQMLMTLNKRPKRLYNFVEDADSILKKYEQYLHSFEFHIYENNYKICAPANSRLQQQQKQPELTSDGLILTKNNETLKEFLEYVARGRIPDAIMEVLRDCNIQFYEGNLILQVYDHTNTVDVTPKENKPNLNSSSSPSNNNSTQDNSKIQQPSEPNSGVANTGANTANKKASFKRPRVYRTLLKPNDLTTYYDMMSYADNARFSDSIYQQFESEILTLTKRNLSLSVPLNPYEHRDMLEETAFSEPHWDSEKKSFIHEHRAESTREGTKGVVGHIEERDEFPQHSSNYEQLMLIMNERTTTITNSTFAVSLTKNAMEIASSSSNGVRGASSSTSNSASNTRNNSLANGNQVALAAAAAAAAVGSTMGNDNNQ	–	–	binds
Spt20-492 (S. cerevisiae Spt20 truncation, V5-tagged) (domain or fragment, UniProt P50875 1-492) MSANSPTGNDPHVFGIPVNATPSNMGSPGSPVNVPPPMNPAVANVNHPVMRTNSNSNANEGTRTLTREQIQQLQQRQRLLLQQRLLEQQRKQQALQNYEAQFYQMLMTLNKRPKRLYNFVEDADSILKKYEQYLHSFEFHIYENNYKICAPANSRLQQQQKQPELTSDGLILTKNNETLKEFLEYVARGRIPDAIMEVLRDCNIQFYEGNLILQVYDHTNTVDVTPKENKPNLNSSSSPSNNNSTQDNSKIQQPSEPNSGVANTGANTANKKASFKRPRVYRTLLKPNDLTTYYDMMSYADNARFSDSIYQQFESEILTLTKRNLSLSVPLNPYEHRDMLEETAFSEPHWDSEKKSFIHEHRAESTREGTKGVVGHIEERDEFPQHSSNYEQLMLIMNERTTTITNSTFAVSLTKNAMEIASSSSNGVRGASSSTSNSASNTRNNSLANGNQVALAAAAAAAAVGSTMGNDNNQFSRLKFIEQWRINKEKRK	–	–	binds
